Experimental data: patent EP2573192A1, “METHOD AND KIT FOR DIAGNOSING AIM-RELATED ILLNESS” (Miyazaki, Toru, priority 2010, dated 2011)
No constants are given. Whether binding was seen depends on the method and setting. Binding seen in cells or lysates may run through a third protein. Some results given as binding are weak or reduced against the parent protein; the word gives no strength. Where a sequence is shown, tags or fusion partners need not be part of it.

Tests used:
[1] = target: endogenous fatty acid synthase (FAS) of mouse adipose tissue / 3T3-L1 adipocytes (mouse) (UniProt P19096); experiment: co-immunoprecipitation with anti-HA antibody from adipose tissue of AIM-/- mice injected with rAIM-HA; FAS detected by Western blotting
[2] = target: T1, dehydrase (DH) domain of FAS labeled at the N-terminal with Flag sequence (UniProt P19096); experiment: co-immunoprecipitation with anti-Flag or anti-HA antibody; Flag-tagged domain expressed in HEK293T cells that stably express AIM-HA
T1 sequence (looked up): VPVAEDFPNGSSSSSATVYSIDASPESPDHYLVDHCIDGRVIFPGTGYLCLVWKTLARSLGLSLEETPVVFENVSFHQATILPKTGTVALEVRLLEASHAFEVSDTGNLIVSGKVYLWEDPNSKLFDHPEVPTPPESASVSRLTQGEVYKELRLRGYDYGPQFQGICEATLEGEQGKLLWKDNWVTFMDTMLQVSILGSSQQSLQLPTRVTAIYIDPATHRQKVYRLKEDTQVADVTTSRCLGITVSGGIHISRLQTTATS

[3] = target: T2, thioesterase (TE) domain of FAS labeled at the N-terminal with Flag sequence (UniProt P19096); experiment: as above
T2 sequence (looked up): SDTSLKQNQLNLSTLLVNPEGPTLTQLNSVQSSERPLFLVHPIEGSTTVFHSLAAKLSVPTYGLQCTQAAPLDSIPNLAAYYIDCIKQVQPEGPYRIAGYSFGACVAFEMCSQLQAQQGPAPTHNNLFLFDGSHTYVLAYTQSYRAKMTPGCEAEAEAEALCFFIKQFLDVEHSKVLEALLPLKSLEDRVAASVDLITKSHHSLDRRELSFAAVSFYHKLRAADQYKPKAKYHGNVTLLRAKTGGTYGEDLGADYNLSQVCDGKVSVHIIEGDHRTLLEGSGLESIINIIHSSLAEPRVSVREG

[4] = target: full-length FAS labeled with FLAG-tag (UniProt P19096); experiment: co-immunoprecipitation with anti-Flag or anti-HA antibody; both proteins co-expressed in HEK 293T cells

Measured: binding

B1: recombinant AIM protein (rAIM) of mouse labeled with HA-tag (ligand, not shown: small tags and cut ends)
chain: ESPTKVQLVGGAHRCEGRVEVEHNGQWGTVCDDGWDRRDVAVVCRELNCGAVIQTPRGASYQPPASEQRVLIQGVDCNGTEDTLAQCELNYYVFDCSHEEDAGAQCENPDSDLLFIPEDVRLVDGPGHCQGRVEVLHQSQWSTVCKAGWNLQVSKVVCRQLGCGRALLTYGSCNKNTQGKGPIWMGKMSCSGQEANLRSCLLSRLENNCTHGEDTWMECEDPFELKLVGGDTPCSGRLEVLHKGSWGSVCDDNWGEKEDQVVCKQLGCGKSLHPSPKTRKIYGPGAGRIWLDDVNCSGKEQSLEFCRHRLWGYHDCTHKEDVEVICTDFDV
binds: all assays above
